# Measurements taken from patent publication US20210324031A1, “COMPOUNDS, COMPOSITIONS, METHODS, AND USES FOR TREATING LEPTIN RESISTANCE, OBESITY, DIABETES MELLITUS AND METABOLIC SYNDROME” (priority 2019, published 2021).
# At least one structure is not confirmed: it was looked up by name or label, or the drawing left a doubt.
# Test: Glucose Tolerance Test (ipGTT) after daily IP dosing for five days
# Type: in vivo, Mice
# Settings: for Avg Glucose: ipGTT, Pioglitazone 30 mg/Kg daily for five days
structure (smiles),measurement,setting,value
CCc1ccc(CCOc2ccc(CC3SC(=O)NC3=O)cc2)nc1 (stereo not drawn) [Pioglitazone],Avg Glucose,15 min after IP dextrose 2 g/kg,617 µg/dL
same,Avg Glucose,30 min after IP dextrose 2 g/kg,638 µg/dL
same,Avg Glucose,60 min after IP dextrose 2 g/kg,356 µg/dL
same,Avg Glucose,90 min after IP dextrose 2 g/kg,245 µg/dL
same,Avg Glucose,120 min after IP dextrose 2 g/kg,224 µg/dL
same,difference in glucose tolerance between treatment groups,"ranking of treatment groups, highly significant",vehicle <Compound B-55<Pioglitazone
